Test results from article PMC3313957.
These are yes or no findings as the source states them, for the method shown. In cells and extracts the contact can be indirect. A yes stands for co-enrichment or nearness to the bait. Other partners may have been found.

Sequences of proteins named here, by UniProt entry; tags and fusion partners are left off. Residues count along the entry.
UniProt P22288, residues 12-241: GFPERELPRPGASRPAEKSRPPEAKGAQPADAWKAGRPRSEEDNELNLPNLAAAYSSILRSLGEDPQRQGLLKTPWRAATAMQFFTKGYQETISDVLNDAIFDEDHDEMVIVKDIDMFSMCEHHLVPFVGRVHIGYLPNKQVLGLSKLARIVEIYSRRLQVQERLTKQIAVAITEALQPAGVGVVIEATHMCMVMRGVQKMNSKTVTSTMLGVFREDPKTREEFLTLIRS
UniProt Q4G061: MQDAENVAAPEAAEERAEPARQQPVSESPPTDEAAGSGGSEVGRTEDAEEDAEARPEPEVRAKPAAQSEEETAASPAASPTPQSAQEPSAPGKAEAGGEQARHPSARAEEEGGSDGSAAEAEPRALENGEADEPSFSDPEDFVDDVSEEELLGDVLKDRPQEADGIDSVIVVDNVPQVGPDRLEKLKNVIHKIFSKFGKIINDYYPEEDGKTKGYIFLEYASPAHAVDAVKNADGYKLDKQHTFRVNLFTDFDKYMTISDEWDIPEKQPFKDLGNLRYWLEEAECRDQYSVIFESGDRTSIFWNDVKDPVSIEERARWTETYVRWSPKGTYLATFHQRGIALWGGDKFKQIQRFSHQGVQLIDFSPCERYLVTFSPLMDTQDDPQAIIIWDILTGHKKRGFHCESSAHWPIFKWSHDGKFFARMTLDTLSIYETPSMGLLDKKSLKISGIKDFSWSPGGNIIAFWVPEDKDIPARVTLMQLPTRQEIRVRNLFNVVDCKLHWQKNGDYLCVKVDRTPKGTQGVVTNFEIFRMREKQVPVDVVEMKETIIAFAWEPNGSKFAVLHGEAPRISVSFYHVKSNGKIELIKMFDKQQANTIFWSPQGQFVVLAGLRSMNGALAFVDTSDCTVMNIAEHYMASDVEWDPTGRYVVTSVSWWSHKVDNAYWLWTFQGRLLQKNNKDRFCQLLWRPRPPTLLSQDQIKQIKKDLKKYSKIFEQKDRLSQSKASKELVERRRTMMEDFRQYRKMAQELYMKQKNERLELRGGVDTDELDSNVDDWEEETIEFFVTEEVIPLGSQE
UniProt Q5RK09: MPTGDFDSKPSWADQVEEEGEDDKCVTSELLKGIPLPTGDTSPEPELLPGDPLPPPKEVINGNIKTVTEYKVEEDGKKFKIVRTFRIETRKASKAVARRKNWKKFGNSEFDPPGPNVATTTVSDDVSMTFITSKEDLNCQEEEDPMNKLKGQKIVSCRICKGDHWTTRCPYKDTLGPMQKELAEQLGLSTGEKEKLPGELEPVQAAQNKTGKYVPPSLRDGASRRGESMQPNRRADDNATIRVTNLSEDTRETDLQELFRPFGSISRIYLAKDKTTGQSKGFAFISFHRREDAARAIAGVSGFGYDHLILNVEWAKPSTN
UniProt B0BNA7: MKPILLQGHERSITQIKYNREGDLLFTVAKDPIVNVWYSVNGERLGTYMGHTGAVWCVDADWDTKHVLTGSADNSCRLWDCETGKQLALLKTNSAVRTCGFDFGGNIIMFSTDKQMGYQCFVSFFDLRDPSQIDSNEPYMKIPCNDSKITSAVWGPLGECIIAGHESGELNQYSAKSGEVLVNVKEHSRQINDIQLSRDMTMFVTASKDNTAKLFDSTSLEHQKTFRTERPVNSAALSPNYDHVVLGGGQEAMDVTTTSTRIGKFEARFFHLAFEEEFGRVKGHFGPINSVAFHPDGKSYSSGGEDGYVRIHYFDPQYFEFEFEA
UniProt P47819: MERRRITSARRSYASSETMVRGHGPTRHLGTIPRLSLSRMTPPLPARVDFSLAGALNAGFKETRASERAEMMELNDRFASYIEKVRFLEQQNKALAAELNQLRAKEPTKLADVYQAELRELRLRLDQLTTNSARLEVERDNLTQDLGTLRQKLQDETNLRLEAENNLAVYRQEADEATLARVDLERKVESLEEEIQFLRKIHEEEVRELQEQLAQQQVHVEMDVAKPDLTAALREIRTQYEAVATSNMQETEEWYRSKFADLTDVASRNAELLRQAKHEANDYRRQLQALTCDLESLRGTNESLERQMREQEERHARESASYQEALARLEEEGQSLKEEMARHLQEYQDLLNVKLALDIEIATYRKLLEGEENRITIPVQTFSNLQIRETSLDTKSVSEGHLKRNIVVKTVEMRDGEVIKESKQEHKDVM
UniProt P04904: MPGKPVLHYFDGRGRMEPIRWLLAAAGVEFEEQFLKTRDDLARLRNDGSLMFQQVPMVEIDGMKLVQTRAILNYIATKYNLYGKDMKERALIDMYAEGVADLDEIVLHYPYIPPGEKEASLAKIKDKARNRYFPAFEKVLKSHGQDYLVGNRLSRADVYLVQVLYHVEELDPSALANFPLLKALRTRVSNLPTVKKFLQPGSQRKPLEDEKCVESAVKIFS
UniProt Q6IFV3: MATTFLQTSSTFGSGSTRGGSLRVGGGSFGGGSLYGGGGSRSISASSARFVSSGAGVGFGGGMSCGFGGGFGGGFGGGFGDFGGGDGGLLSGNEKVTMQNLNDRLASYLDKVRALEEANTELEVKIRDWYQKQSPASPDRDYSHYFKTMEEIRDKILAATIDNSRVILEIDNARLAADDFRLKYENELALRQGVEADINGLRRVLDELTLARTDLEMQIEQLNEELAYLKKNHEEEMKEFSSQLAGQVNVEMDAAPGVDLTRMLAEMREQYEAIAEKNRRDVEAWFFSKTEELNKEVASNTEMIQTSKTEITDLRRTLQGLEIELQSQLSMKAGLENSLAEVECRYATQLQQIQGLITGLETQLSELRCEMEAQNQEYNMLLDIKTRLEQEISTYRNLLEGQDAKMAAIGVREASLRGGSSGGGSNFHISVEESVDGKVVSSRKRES

B1: ATP-binding cassette sub-family D member 3 (protein, UniProt P16970 1-659)
chain: MAAFSKYLTARNSSLAGAAFLLFCLLHKRRRALGLHGKKSGKPPLQNNEKEGKKERAVVDKVFLSRLSQILKIMVPRTFCKETGYLILIAVMLVSRTYCDVWMIQNGTLIESGIIGRSSKDFKRYLFNFIAAMPLISLVNNFLKYGLNELKLCFRVRLTRYLYEEYLQAFTYYKMGNLDNRIANPDQLLTQDVEKFCNSVVDLYSNLSKPFLDIVLYIFKLTSAIGAQGPASMMAYLLVSGLFLTRLRRPIGKMTIMEQKYEGEYRFVNSRLITNSEEIAFYNGNKREKQTIHSVFRKLVEHLHNFIFFRFSMGFIDSIIAKYIATVVGYLVVSRPFLDLAHPRHLHSTHSELLEDYYQSGRMLLRMSQALGRIVLAGREMTRLAGFTARITELMQVLKDLNHGKYERTMVSQQDKGIEGAQASPLIPGAGEIINADNIIKFDHVPLATPNGDILIQDLSFEVRSGANVLICGPNGCGKSSLFRVLGELWPLFGGHLTKPERGKLFYVPQRPYMTLGTLRDQVIYPDGKEDQKKKGISDQVLKGYLDNVQLGHILEREGGWDSVQDWMDVLSGGEKQRMAMARLFYHKPQFAILDECTSAVSVDVEDYIYSHCRKVGITLFTVSHRKSLWKHHEYYLHMDGRGNYEFKKITEDTVEFGS
B2: Keratin, type I cytoskeletal 1 (protein, UniProt Q6IFW5 1-456)
chain: MSLSVRTSALSRRSSSQNGVAGRPWGASASSVACGYGGTASGFGVGCGGLLSAASMFGSSSGFSGGSTGCSPGLGTAYGGPLGAGVGGMGIGGSSGGGSLCIFSGNDGGLLSGSEKETMQNLNDRLASYLGKVRALEEANAELENKIREWYETRRTGDSGSQSDYSKYYPLIEDLKNKIISASVSNAQLLLQIDNARLAAEDFRMKYENELALRQTVEADINGLRRVLDELTLARADLEAQTENLTEELAYMKKNHEEELQSFQAGGPGEVNVEMDAAPGVDLTKSGELRKEINSNTEQLQSSKSEVTDLKRMVQNLEIELQSQLAMKSSLEGSLAETEGGYCCQLSQMQQLIGSLEEQLQQLRADAERQNEDHQRLLGVKARLEMEIETYRRLLEGDTQGDGFDESLSLTVSKPQAPSVDSSKDPNKTRKIKTVVQEIVNGEVVSSQVQELEEAM
B3: Dynamin-2 (protein, UniProt P39052 1-870)
chain: MGNRGMEELIPLVNKLQDAFSSIGQSCHLDLPQIAVVGGQSAGKSSVLENFVGRDFLPRGSGIVTRRPLILQLIFSKTEYAEFLHCKSKKFTDFDEVRQEIEAETDRVTGTNKGISPVPINLRVYSPHVLNLTLIDLPGITKVPVGDQPPDIEYQIKDMILQFISRESSLILAVTPANMDLANSDALKLAKEVDPQGLRTIGVITKLDLMDEGTDARDVLENKLLPLRRGYIGVVNRSQKDIEGRKDIRAALAAERKFFLSHPAYRHMADRMGTPHLQKTLNQQLTNHIRESLPTLRSKLQSQLLSLEKEVEEYKNFRPDDPTRKTKALLQMVQQFGVDFEKRIEGSGDQVDTLELSGGARINRIFHERFPFELVKMEFDEKDLRREISYAIKNIHGVRTGLFTPDLAFEAIVKKQVVKLKEPCLKCVDLVIQELISTVRQCTSKLSSYPRLREETERIVTTYIREREGRTKDQILLLIDIEQSYINTNHEDFIGFANAQQRSTQLNKKRAIPNQGEILVIRRGWLTINNISLMKGGSKEYWFVLTAESLSWYKDEEEKEKKYMLPLDNLKIRDVEKGFMSNKHVFAIFNTEQRNVYKDLRQIELACDSQEDVDSWKASFLRAGVYPEKDQAENEDGAQENTFSMDPQLERQVETIRNLVDSYVAIINKSIRDLMPKTIMHLMINNTKAFIHHELLAYLYSSADQSSLMEESAEQAQRRDDMLRMYHALKEALNIIGDISTSTVSTPVPPPVDDTWLQNTSSHSPTPQRRPVSSVHPPGRPPAVRGPTPGPPLIPMPVGATSSFSAPPIPSRPGPQNVFANNDPFSAPPQIPSRPARIPPGIPPGVPSRRAPAAPSRPTIIRPAEPSLLD
B4: ATP-dependent dihydroxyacetone kinase (enzyme, UniProt Q4KLZ6 1-578)
chain: MSSKKMVNSVEGCAGDALAGFVACNPDLQLLQGYRVALRSDLDSLKGRVALLSGGGSGHEPAHAGFIGKGMLTGVIAGAVFASPAVGSILAAIRAVAQAGTAGTLLIVKNYTGDRLNFGLAMEQAKAEGISVEMVVIEDDSAFTVLKKAGRRGLCGTILIHKVAGALAEEGMGLEEITKKVSVIAKAIGTLGVSLSPCSVPGTKPTFELAADEMELGLGIHGEAGVRRIKLVPVDQIVTLMLDHMTDTSNISHVPVKSGSSVVLMVNNLGGLSFLELGIIADAAIRLLEGRGVKVARALVGTFMSALEMRGVSLTLMLVDEPLLKLIDAETNAKAWPHMSKVSVTGRNRIRAAPTEPAEAPEATAAGGVASKQMTLVLDRISTTLIGLEEHLNALDRAAGDGDCGSTHSRAAKAIQGWLKEGPTPASPAQVLSKLSVLLLEKMGGSSGALYGLFLTAAAQPLKANTDLPAWSAAMDAGLKAMQKYGKAAPGDRTMLDSLWAAAQELQAWKSPGASLLPVLTKAVKSAEAAAEATKNMEAGAGRASYISSAQLDQPDPGAVAAAAIFRAILEVLQTKAA
B5: Glutathione S-transferase Mu 1 (enzyme, UniProt P04905 1-218)
chain: MPMILGYWNVRGLTHPIRLLLEYTDSSYEEKRYAMGDAPDYDRSQWLNEKFKLGLDFPNLPYLIDGSRKITQSNAIMRYLARKHHLCGETEEERIRADIVENQVMDNRMQLIMLCYNPDFEKQKPEFLKTIPEKMKLYSEFLGKRPWFAGDKVTYVDFLAYDILDQYHIFEPKCLDAFPNLKDFLARFEGLKKISAYMKSSRYLSTPIFSKLAQWSNK

Biological target: GTP cyclohydrolase I (rat (endogenous in rat liver, brain, heart and kidney)) (UniProt P22288)
Experiment: affinity purification with mass spectrometry; rat liver homogenate (MOPS lysis buffer), pre-cleared, on GCH1 antibody cross-linked to protein A/G agarose overnight at 4°C; IgG agarose as control; wash 150 mM NaCl, 50 mM Tris-HCl pH 7.5; acid elution; LC/MS of tryptic peptides; five independent repeats

Row | Molecule | binding
1 | Eukaryotic translation initiation factor 3 subunit B (from UniProt Q4G061 1-797) | binds
2 | Eukaryotic translation initiation factor 3 subunit G (from UniProt Q5RK09 1-320) | binds
3 | Eukaryotic translation initiation factor 3 subunit I (from UniProt B0BNA7 1-325) | binds
4 | Glial fibrillary acidic protein (from UniProt P47819 1-430) | binds
5 | Glutathione S-transferase alpha-3 (from UniProt P04904 1-221) (enzyme) | binds
6 | Keratin, type I cytoskeletal 15 (from UniProt Q6IFV3 1-447) | binds
7 | B1 | binds
8 | B2 | binds
9 | B3 | binds
10 | B4 | binds
11 | B5 | binds
